The M2OR odorant receptor database
This is one part of the list. Calls are pooled over several reports, among them a noisy single-well screen.

Chains of the proteins cited; added tags and fusions are not shown. A line that says so, or that is headed by a name, gives the form on record, which may keep a tag or linker.
O52I2, as listed by the source: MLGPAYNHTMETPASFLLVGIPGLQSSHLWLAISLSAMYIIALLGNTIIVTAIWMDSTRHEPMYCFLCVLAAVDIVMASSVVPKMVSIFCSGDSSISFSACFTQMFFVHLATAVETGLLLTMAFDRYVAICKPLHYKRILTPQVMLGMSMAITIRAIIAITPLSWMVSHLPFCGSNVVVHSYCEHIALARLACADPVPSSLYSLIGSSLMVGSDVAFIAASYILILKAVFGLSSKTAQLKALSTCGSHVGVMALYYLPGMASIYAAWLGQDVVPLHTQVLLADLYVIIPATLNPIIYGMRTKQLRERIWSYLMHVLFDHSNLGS

What was measured:
Details in all cases: stereoisomer not certain
O52I2 [1] = system: T1, O52I2
T1 sequence (whole entry): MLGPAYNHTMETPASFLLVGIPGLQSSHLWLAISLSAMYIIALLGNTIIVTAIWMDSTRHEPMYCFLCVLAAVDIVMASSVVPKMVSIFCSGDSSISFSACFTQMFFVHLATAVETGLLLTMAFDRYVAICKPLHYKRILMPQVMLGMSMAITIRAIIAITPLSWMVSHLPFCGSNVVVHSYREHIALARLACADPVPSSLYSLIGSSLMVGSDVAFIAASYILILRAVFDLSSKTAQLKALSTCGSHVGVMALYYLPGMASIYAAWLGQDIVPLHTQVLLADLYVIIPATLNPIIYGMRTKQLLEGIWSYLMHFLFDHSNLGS
Summary of the method: (§1)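 Each entry records the cell line, G-protein, co-transfected protein and tags used. Methods varied with the source, often transient luciferase assays in mammalian cell lines. A receptor–molecule pair is called responsive (active) if the original authors judged its signal statistically different from baseline and non-responsive (inactive) otherwise.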

O52I2 [2] = system: O52I2; remark: listed apart in the source
Summary of the method: as §1

O52J3 = system: T2, O52J3
T2 sequence (whole entry): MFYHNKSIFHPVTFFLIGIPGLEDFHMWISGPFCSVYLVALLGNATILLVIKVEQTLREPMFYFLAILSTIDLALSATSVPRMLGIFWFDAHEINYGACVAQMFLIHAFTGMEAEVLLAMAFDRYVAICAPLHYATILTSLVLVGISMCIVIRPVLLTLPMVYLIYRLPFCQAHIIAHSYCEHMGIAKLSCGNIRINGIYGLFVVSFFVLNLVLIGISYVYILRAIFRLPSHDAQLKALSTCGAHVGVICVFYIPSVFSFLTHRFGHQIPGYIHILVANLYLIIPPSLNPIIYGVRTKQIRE
Summary of the method: as §1

O52L1 = system: T3, O52L1
T3 sequence (whole entry): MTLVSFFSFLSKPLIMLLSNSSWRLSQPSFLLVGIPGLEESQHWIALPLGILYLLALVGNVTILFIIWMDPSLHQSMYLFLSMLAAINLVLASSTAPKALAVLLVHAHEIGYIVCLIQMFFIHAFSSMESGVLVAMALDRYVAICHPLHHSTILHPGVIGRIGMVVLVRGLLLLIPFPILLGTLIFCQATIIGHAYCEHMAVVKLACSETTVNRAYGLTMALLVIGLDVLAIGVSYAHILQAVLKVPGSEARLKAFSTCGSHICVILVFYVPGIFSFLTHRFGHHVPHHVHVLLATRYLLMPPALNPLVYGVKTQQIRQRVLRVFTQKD
Summary of the method: as §1

O52L2 = system: T4, O52L2
T4 sequence (whole entry): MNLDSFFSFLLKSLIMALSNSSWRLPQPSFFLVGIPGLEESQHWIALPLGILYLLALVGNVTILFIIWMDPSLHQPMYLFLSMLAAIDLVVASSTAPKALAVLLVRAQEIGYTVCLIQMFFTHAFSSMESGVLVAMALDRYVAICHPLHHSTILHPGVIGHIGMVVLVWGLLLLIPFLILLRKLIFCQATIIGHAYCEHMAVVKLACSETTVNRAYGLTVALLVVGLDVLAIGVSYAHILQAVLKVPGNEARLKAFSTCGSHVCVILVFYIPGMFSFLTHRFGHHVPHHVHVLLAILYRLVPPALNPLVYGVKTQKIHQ
Summary of the method: as §1

O52M1 = system: T5, O52M1
T5 sequence (whole entry): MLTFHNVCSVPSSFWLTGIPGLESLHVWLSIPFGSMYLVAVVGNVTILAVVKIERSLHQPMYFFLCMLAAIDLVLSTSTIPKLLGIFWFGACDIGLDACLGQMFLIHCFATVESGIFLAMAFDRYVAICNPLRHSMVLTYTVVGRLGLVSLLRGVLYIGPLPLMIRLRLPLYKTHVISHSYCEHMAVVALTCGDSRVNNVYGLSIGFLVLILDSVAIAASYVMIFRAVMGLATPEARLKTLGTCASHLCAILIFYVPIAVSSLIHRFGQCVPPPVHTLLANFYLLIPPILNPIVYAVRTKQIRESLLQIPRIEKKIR
Summary of the method: as §1

O52N1 = system: T6, O52N1
T6 sequence (whole entry): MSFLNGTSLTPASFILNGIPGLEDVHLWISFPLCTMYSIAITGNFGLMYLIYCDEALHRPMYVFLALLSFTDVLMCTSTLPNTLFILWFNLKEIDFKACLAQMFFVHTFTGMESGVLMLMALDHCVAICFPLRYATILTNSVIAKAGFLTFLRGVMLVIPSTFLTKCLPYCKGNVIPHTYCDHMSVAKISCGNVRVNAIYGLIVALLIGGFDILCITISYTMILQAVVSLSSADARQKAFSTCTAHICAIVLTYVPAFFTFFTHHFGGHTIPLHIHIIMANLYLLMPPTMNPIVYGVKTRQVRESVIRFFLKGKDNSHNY
Summary of the method: as §1

O52N2 = system: T7, O52N2
T7 sequence (whole entry): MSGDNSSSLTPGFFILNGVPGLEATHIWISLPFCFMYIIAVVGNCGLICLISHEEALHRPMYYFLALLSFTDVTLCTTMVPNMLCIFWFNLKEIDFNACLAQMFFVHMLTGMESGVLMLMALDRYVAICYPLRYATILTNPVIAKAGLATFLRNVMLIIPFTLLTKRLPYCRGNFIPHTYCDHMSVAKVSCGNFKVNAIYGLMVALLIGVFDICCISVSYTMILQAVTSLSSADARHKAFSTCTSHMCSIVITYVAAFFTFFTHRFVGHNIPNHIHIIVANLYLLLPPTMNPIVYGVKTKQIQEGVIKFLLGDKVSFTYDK
Summary of the method: as §1

O52N4 = system: T8, O52N4
T8 sequence (whole entry): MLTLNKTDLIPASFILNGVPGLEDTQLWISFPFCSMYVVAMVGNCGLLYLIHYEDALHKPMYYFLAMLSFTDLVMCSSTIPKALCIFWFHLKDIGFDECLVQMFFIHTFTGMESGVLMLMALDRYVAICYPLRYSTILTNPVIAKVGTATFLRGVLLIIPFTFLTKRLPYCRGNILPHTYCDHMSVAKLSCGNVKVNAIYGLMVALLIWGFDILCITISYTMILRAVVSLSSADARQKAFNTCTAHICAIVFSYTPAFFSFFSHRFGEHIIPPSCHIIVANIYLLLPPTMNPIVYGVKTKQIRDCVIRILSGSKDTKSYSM
Summary of the method: as §1

O52P1 = system: T9, O52P1
T9 sequence (whole entry): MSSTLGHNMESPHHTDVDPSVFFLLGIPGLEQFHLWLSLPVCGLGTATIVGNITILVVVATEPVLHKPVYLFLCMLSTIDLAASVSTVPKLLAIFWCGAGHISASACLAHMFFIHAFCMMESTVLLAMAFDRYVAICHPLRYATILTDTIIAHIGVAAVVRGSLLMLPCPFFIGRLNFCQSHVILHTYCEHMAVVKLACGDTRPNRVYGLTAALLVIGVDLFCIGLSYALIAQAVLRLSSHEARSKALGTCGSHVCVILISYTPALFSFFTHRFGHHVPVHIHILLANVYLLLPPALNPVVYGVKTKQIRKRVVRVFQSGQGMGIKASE
Summary of the method: as §1

Structure (SMILES)	odorant receptor agonist call (O52I2 [1])	odorant receptor agonist call (O52I2 [2])	odorant receptor agonist call (O52J3)	odorant receptor agonist call (O52L1)	odorant receptor agonist call (O52L2)	odorant receptor agonist call (O52M1)	odorant receptor agonist call (O52N1)	odorant receptor agonist call (O52N2)	odorant receptor agonist call (O52N4)	odorant receptor agonist call (O52P1)
CCCCCCCCCC=O	inactive	inactive	inactive	inactive	inactive	inactive	inactive	inactive	inactive	inactive
CC=Cc1ccc(O)c(OC)c1	active		inactive	inactive	inactive	inactive	inactive	active	active	active
COc1cc(C)ccc1O	inactive		inactive	inactive	inactive	inactive	active	inactive	inactive	inactive
c1ccc(Oc2ccccc2)cc1	inactive		inactive	inactive	inactive	inactive	inactive	inactive	inactive	inactive
CC(=O)OC(C)(C)C1CC=C(C)CC1 (centres undefined)	inactive		inactive	inactive	inactive	inactive	inactive	inactive	inactive	inactive
CC12C=CCC1C1CCC3=CC(=O)CCC3(C)C1CC2 (centres undefined)	inactive		inactive	inactive	inactive	inactive	inactive	inactive	active	inactive
CC(C)C=O	inactive		inactive	inactive	inactive	inactive	inactive	inactive	inactive	inactive
CCC=CCCO	inactive		inactive	inactive	inactive	inactive	inactive	inactive	inactive	inactive
CC(C)CC(=O)O	inactive		inactive	inactive	inactive	inactive	inactive	inactive	active	inactive
CCCCCCCC=O	inactive		inactive	inactive	inactive	inactive	inactive	inactive	inactive	inactive
CC1COCc2cc3c(cc21)C(C)(C)C(C)C3(C)C (centres undefined)	active		active	active	active	inactive	inactive	active	inactive	active
CC(=O)C(C)=O	inactive		inactive	inactive	inactive	inactive	inactive	inactive	inactive	inactive

As entered above:
Under odorant receptor agonist call (O52M1), CCCCCCCC=O has the entry inactive
Under odorant receptor agonist call (O52M1), CCCCCCCCCC=O has the entry inactive
